# According to patent US11406694B2, “Vaccine comprising drug and parasite administration” (priority 2016, dated 2022):
# At least one compound was matched to its structure with a doubt left.
# Tested on: P. falciparum 7G8
# Assay: Blood stage P. falciparum infection of human volunteers under doxycycline, parasitaemia by qPCR
# Type: in vivo
# Description: FIG. 13: Persistence of P. falciparum 7G8 in volunteers receiving doxycycline chemoprophylaxis. […] Volunteers received 3×106 pRBCs on D0, followed by doxycycline treatment administered orally (100 mg/day) from D0 to D20.
# We have also started human experiments. Initially we have given two volunteers a blood stage infection initiated with 3×10^6 magnet-purified P. falciparum trophozoite-parasitized human red cells (pRBC). At the same time, volunteers were administered 100 mg doxycycline once daily for 21 days, although this could be changed to twice daily. A controlled release form of doxycycline (such as Atridox® comprising doxycycline hyclate) will also be tested.
# Parasite concentration is determined whereby the log10 of each known concentration of a standard concentration range is plotted against the quantification cycle of Cq values of the test samples in a linear regression model (y=mx+b) using Biorad CFX manager 2.1 software.
smiles,measurement,setting,value
C[C@H]1c2cccc(O)c2C(=O)C2=C(O)[C@]3(O)C(=O)C(C(N)=O)=C(O)[C@@H](N(C)C)[C@@H]3[C@@H](O)[C@@H]21 [doxycycline],clearance of infection,"after 23 days, 100 mg doxycycline once daily",almost cleared their infection
same,malaria parasite growth following cessation of treatment,after cessation of doxycycline,exponential growth
same,malaria parasite growth during treatment,up to day 25,suppressed
